Experimental data from article PMC8576903.
No constants are given. Whether binding was seen depends on the method and setting. Binding seen in cells or lysates may run through a third protein. Some entries that bind do so weakly or less than the wild type.

Amino acid sequences for entries named in this document (tags omitted).
UniProt P01106: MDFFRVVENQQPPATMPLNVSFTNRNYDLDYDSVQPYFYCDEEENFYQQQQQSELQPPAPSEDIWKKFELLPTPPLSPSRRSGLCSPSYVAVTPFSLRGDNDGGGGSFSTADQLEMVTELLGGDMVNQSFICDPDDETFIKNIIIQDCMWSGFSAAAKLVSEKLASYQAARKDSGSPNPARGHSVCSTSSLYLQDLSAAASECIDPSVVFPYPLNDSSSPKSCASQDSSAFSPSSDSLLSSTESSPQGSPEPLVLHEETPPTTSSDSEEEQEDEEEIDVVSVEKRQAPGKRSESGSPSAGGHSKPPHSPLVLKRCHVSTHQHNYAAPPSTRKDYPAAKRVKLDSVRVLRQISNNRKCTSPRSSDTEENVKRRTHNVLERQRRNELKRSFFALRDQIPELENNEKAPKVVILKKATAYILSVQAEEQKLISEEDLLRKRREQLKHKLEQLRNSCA
UniProt P67809: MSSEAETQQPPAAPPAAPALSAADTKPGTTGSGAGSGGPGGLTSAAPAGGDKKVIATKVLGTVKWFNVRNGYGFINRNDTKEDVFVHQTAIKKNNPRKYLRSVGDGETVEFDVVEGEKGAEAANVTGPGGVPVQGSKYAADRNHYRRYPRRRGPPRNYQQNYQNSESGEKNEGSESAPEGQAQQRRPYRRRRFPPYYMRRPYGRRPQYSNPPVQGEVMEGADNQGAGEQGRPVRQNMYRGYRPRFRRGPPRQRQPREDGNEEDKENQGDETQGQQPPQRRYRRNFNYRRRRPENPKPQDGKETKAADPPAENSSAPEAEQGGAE

Target: proto-oncogene c-Myc (human (endogenous in U937)) (UniProt P01106)
Assay: co-IP; endogenous proteins in U937 cells; antibodies specific for YBX1 (ab76149) and MYC (ab32072), IgG as negative control, Western blot; also in U937 cells stably transfected with mock, GAS6-AS1, sh-Scb or sh-GAS6-AS1

binding: binds
Substance: Y-box binding protein 1 (from UniProt P67809 1-324)
